Experimental data taken from publication doi:10.1101/2022.05.12.491601.
No constants are given. Whether binding was seen depends on the method and setting. Binding seen in cells or lysates may run through a third protein. These calls come from enrichment with a bait or labelling near it, and not all partners need be listed.

Biological target: T1, P2X4 receptor (mouse (endogenous in BMDM)) (UniProt Q9JJX6)
T1 sequence: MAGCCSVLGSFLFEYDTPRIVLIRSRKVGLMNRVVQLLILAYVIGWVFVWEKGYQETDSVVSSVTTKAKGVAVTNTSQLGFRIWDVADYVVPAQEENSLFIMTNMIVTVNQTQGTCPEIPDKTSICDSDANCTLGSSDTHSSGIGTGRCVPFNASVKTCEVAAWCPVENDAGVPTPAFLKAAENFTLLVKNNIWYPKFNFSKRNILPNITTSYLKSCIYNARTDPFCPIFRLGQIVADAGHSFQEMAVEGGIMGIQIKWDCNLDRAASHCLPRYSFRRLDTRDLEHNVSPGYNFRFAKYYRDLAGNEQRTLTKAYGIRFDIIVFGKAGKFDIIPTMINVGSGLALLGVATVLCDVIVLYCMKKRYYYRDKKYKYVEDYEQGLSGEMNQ
Assay: affinity purification with mass spectrometry

binding: binds
B1: ApoE (protein, UniProt P08226 19-311)
chain: EGEPEVTDQLEWQSNQPWEQALNRFWDYLRWVQTLSDQVQEELQSSQVTQELTALMEDTMTEVKAYKKELEEQLGPVAEETRARLGKEVQAAQARLGADMEDLRNRLGQYRNEVHTMLGQSTEEIRARLSTHLRKMRKRLMRDAEDLQKRLAVYKAGAREGAERGVSAIRERLGPLVEQGRQRTANLGAGAAQPLRDRAQAFGDRIRGRLEEVGNQARDRLEEVREHMEEVRSKMEEQTQQIRLQAEIFQARLKGWFEPIVEDMHRQWANLMEKIQASVATNPIITPVAQENQ
